Values of other authors, collected in US6635459B1, “Nucleotide sequences encoding pinoresinol/lariciresinol reductase proteins and their methods of use” (Washington State University Research Foundation, priority 1996, dated 2003).
At least one compound was matched to its structure with a doubt left.

Conditions: cited from earlier work

COc1cc([C@H]2OC[C@H]3[C@@H]2CO[C@@H]3c2cc(OC)c(O[C@@H]3O[C@H](CO)[C@@H](O)[C@H](O)[C@H]3O)c(OC)c2)cc(OC)c1O [syringaresinol β-D-glucoside]
cardiovascular activity: enhance cardiovascular activity
